Data reported in publication PMC6769256.
These are yes or no findings as the source states them, for the method shown. In cells and extracts the contact can be indirect. Binding calls can cover weak binding; strength is not graded here. Sequences can lack the tags named with a protein.

Target: GFP-tagged Dm HELZ (CG9425) (Drosophila melanogaster) (UniProt Q9VUH9)
Experiment: co-IP; GFP immunoprecipitation from Dm S2 cells co-transfected with GFP-Dm HELZ (bait) and an HA-tagged Dm protein; lysates treated with RNase A before IP; Western blot

B1: HA-tagged Dm PAN3 (protein, UniProt Q95RR8 1-790)
chain: MCSTYGLLSFEFSDTAAMDPIFFSPTNGIPSESKLATYMNRQNVATPSGYGLNNGFSLLNLDSPLNKKSQVTPQSPEFIPTRLGSTPNFYAPYHNAPMQLSNGLNGVNGLTAAAAAAAAAAAAAAAAVPSSTSSASSASVTISKTANGGASMLALQKTASIASVTIAQQQPQHPQKQQQHPPSVGGGAVSAASAPIAISGAPPNPAAAPFVSSMSAQTPLKGRGAMMRQESPTAAMISGAGPGEKSPPHGMTPHGASPIPSALPTSVHQENVGGTIYFYPTANAQNSQPVVNSMVVDGTHPALHGVSAVAPMSAGVPAAMMYTGHVYPGPSSNVVTMQPKTLLESAFFMPDEMRAEVLARNEISNLIMDAAEAAQHALPLEVENYHALYPLEPPAQPLHAKLTFPATTYRATHNTTGYKYCLRRIHGFRLQSTKCMTLVEMWKKLQHTNVVQLREVFTTKAFGDNSLVLVYDYHPGSQTLLAKYFTPAPETNGYTDPFQGEARPFSHKSNMQRTSNGPLLPEATIWSIIMQLTAGLKAIHHAGLACKVLDPTKIIVTGKRVRFSSCCISDITQFDPNASNPLALVNMHQQDDLTALGRLVLALACRCLQSVQRDNVQSSIDMVTRNYSTDLRNFIVYLFTTNNRRSVTDLMPMIGARFYTQLDALQSKIDMQEDELAKEMENGRLYRILVKLNSINERPDFNLDCTWSETGDRYMLKLFRDYLFHSVTEDGRPWLDHAHIVQCLNKLDAGSIERVQLMSRDEQSVLIVSYAELKNCLENAFSELMSSAAN
binding: binds

B2: HA-tagged Dm NOT2 (protein, UniProt Q94547 1-585)
chain: MANLNFQQPPRSIANAALAGRTTGGFGGSSLAGHVTPTSGMFQTDFANSYPGTANYGQAPQQQQQQQQQPQLSPNRNAQLSVGGPAISSGNRNANLFGQRQFVERRAMQGLGSGPMSNMGNFMQTGRGGYGTGGGGGGPLNNFHVFGGGGGSDTSTPALLDPTEFPSLTNARGQNDQTLPQSNPLQPPGSKPYGNFFTSFGMVKQPTSEQSEFTMSNEDFPALPGTQNSDGTTNAVGSVAGTGGSGGASTENHLDGTEKPMNSIVVSGSASGSSGSNVGVVGGNGLGAVGSGIGGLAVGGGGGAGSSGGGGVGGNAASGVVGGSHVGLVGSNSGIGGVNSVPNSNAMMGVGGGLGSGSGSSGSGAGGEHLNDNSSNDKLVKSGVQTSPDGKVTNIPATMVNNQFGMVGLLTFIRAAETDPNLVTLSLGTDLTGLGLNLNSQESLHTTFAGPFVAQPCRAQDVEFNVPPEYLINFAIRDKLTAPVLKKLQEDLLFFLFYTNIGDMMQLMAAAELHSREWRYHVEEKIWITRIPGIDQYEKNGTKERGTFYYFDAQSWKRLSKVFQIDPEKLDKCPNISAFMNGQSV
binding: binds

B3: HA-tagged Dm Me31B (fly orthologue of mammalian DDX6) (protein, UniProt P23128 1-459)
chain: MMTEKLNSGHTNLTSKGIINDLQIAGNTSDDMGWKSKLKLPPKDNRFKTTDVTDTRGNEFEEFCLKRELLMGIFEKGWERPSPIQEAAIPIALSGKDVLARAKNGTGKTGAYCIPVLEQIDPTKDYIQALVMVPTRELALQTSQICIELAKHLDIRVMVTTGGTILKDDILRIYQKVQLIIATPGRILDLMDKKVADMSHCRILVLDEADKLLSLDFQGMLDHVILKLPKDPQILLFSATFPLTVKNFMEKHLREPYEINLMEELTLKGVTQYYAFVQERQKVHCLNTLFSKLQINQSIIFCNSTQRVELLAKKITELGYCCYYIHAKMAQAHRNRVFHDFRQGLCRNLVCSDLFTRGIDVQAVNVVINFDFPRMAETYLHRIGRSGRFGHLGIAINLITYEDRFDLHRIEKELGTEIKPIPKVIDPALYVANVGASVGDTCNNSDLNNSANEEGNVSK
binding: no binding
